# Patent publication US20200247886A1
# Chains of the proteins cited; added tags and fusions are not shown. Lines headed by an entry give the natural chain unless they say otherwise; changes in a name come on top.
# UniProt Q08722: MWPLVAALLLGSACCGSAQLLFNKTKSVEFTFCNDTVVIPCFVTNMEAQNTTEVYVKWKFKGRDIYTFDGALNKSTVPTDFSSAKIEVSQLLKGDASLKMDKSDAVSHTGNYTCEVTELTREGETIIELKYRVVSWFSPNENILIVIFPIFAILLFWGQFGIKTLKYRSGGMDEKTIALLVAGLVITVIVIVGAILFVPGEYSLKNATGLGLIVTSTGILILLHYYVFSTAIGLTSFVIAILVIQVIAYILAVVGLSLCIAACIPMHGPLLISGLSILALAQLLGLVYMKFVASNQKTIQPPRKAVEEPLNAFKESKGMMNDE
# Changes are numbered by the printed parent chain. These are yes or no findings as the source states them, for the method shown. Some entries that bind do so weakly or less than the wild type.
# B1: Positive 1 (commercial anti-CD47 blocking antibody, eBioscience Cat#14-0479) (antibody, V domains shown)
# VH: EVQLVESGGDLVKPGGSLKLSCAASGFTFSGYGMSWVRQTPDKRLEWVATITSGGTYTYYPDSVKGRFTISRDNAKNTLYLQIDSLKSEDTAIYFCARSLAGNAMDYWGQGTSVTVSS
# VL: DIVMTQSPATLSVTPGDRVSLSCRASQTISDYLHWYQQKSHESPRLLIKFASQSISGIPSRFSGSGSGSDFTLSINSVEPEDVGVYYCQNGHGFPRTFGGGTKLEIK
# B2: ABU1 (antibody, V domains shown)
# VH: EVKLVESGGGLVQPGGSRKLSCAASGFTFSDYGMAWVRQAPGKGPECVAFISNLAKRIYYVDTVTGRFTISRENAKNTLYLEMSSLRSEDTAMYYCTRAYRYALDYWGQGTTLTVSS
# VL: QIVLTQSPAIMSASPGEKVTMTCSASSSVSYMNWYQQKSGTSPKRWIYDTSKLASGVPARFSGSGSGTSYSLTISSMEAEDAATYYCQQWNSNPPTFGTGTKLELK
# B3: H-ABU 12 (antibody, V domains shown)
# VH: QVQLVQSGAEVKKPGASVKVSCKASGYTFTNYWMQWVRQAPGQGLEWMGMIDPSDSESRLNQKFKDRVTMTRDTSTSTVYMELSSLRSEDTAVYYCARRGSPMITSFAYWGQGTLVTVSS
# VL: DIQMTQSPSSLSASVGDRVTITCRASKNIGKYLAWFQQKPGKAPKSLIYSGSTLQSGVPSRFSGSGSGTDFTLTISSLQPEDFATYYCQQHNEYPYTFGGGTKVEIK
# B4: H-ABU 21 (antibody, V domains shown)
# VH: B3 VH with A24T, T28S, V79A
# VL: B3 VL with I2V, M4I, A43T, P44N, S46L, V58I
# B5: H-ABU 32 (antibody, V domains shown)
# VH: B3 VH with V5Q, A24T, T28S, M48I, R67K, V68A, M70L, R72V, T74K, V79A
# VL: B3 VL
# B6: H-ABU 25 (antibody, V domains shown)
# VH: B3 VH with M48I, V68A, M70L, R72V
# VL: B3 VL with I2V, M4I, V58I
# B7: H-ABU 24 (antibody, V domains shown)
# VH: B3 VH with M48I, V68A, M70L, R72V
# VL: B3 VL with V58I
# B8: H-ABU 14 (antibody, V domains shown)
# VH: B3 VH
# VL: B3 VL with V58I
# B9: H-ABU 36 (antibody, V domains shown)
# VL: B3 VL with I2V, M4I, A43T, P44N, S46L, V58I
# VH: B3 VH with V5Q, A24T, T28S, M48I, R67K, V68A, M70L, R72V, T74K, V79A
# B10: H-ABU 28 (antibody, V domains shown)
# VH: B3 VH with A24T, T28S, M48I, V68A, M70L, R72V, V79A
# VL: B3 VL with I2V, M4I
# B11: H-ABU 31 (antibody, V domains shown)
# VH: B3 VH with A24T, T28S, M48I, V68A, M70L, R72V, V79A
# VL: B3 VL with I2V, M4I, A43T, P44N, S46L, V58I
# B12: H-ABU 16 (antibody, V domains shown)
# VH: B3 VH
# VL: B3 VL with I2V, M4I, A43T, P44N, S46L, V58I
# B13: H-ABU 19 (antibody, V domains shown)
# VH: B3 VH with A24T, T28S, V79A
# VL: B3 VL with V58I
# B14: H-ABU 22 (antibody, V domains shown)
# VH: B3 VH with M48I, V68A, M70L, R72V
# VL: B3 VL
# B15: H-ABU 23 (antibody, V domains shown)
# VH: B3 VH with M48I, V68A, M70L, R72V
# VL: B3 VL with I2V, M4I
# B16: H-ABU 33 (antibody, V domains shown)
# VH: B3 VH with V5Q, A24T, T28S, M48I, R67K, V68A, M70L, R72V, T74K, V79A
# VL: B3 VL with I2V, M4I
# B17: H-ABU 26 (antibody, V domains shown)
# VH: B3 VH with M48I, V68A, M70L, R72V
# VL: B3 VL with I2V, M4I, A43T, P44N, S46L, V58I
# B18: H-ABU 15 (antibody, V domains shown)
# VH: B3 VH
# VL: B3 VL with I2V, M4I, V58I
# B19: H-ABU 17 (antibody, V domains shown)
# VH: B3 VH with A24T, T28S, V79A
# VL: B3 VL
# B20: H-ABU 34 (antibody, V domains shown)
# VH: B3 VH with V5Q, A24T, T28S, M48I, R67K, V68A, M70L, R72V, T74K, V79A
# VL: B3 VL with V58I
# B21: H-ABU 13 (antibody, V domains shown)
# VH: B3 VH
# VL: B3 VL with I2V, M4I
# B22: H-ABU 30 (antibody, V domains shown)
# VH: B3 VH with A24T, T28S, M48I, V68A, M70L, R72V, V79A
# VL: B3 VL with I2V, M4I, V58I
# B23: H-ABU 35 (antibody, V domains shown)
# VH: B3 VH with V5Q, A24T, T28S, M48I, R67K, V68A, M70L, R72V, T74K, V79A
# VL: B3 VL with I2V, M4I, V58I
# B24: H-ABU 27 (antibody, V domains shown)
# VH: B3 VH with A24T, T28S, M48I, V68A, M70L, R72V, V79A
# VL: B3 VL
# B25: H-ABU 18 (antibody, V domains shown)
# VH: B3 VH with A24T, T28S, V79A
# VL: B3 VL with I2V, M4I
# B26: H-ABU 29 (antibody, V domains shown)
# VH: B3 VH with A24T, T28S, M48I, V68A, M70L, R72V, V79A
# VL: B3 VL with V58I
# B27: H-ABU 20 (antibody, V domains shown)
# VH: B3 VH with A24T, T28S, V79A
# VL: B3 VL with I2V, M4I, V58I
# Target: CD47 on monkey RBC (Macaca fascicularis)
# Assay: flow cytometry on cynomolgus monkey red blood cells, MFI
row,binding,Binder
1,binds,B1
2,binds,B2

# Target: CD47 protein (construct not stated; SPR antigen, CD47 coated ELISA plates) (Homo sapiens (Human)) (UniProt Q08722)
# Assay: ELISA, CD47 coated plates, OD at 450
row,binding,Binder
1,binds,B3
2,binds,B4
3,binds,B5
4,binds,B6
5,binds,B7
6,binds,B8
7,binds,B9
8,binds,B10
9,binds,B11
10,binds,B12
11,binds,B13
12,binds,B14
13,binds,B15
14,binds,B16
15,binds,B17
16,binds,B18
17,binds,B19
18,binds,B20
19,binds,B21
20,binds,B22
21,binds,B23
22,binds,B24
23,binds,B25
24,binds,B26
25,binds,B27

# Target: CD47 protein (construct not stated; SPR antigen, CD47 coated ELISA plates) (Homo sapiens (Human)) (UniProt Q08722)
# Assay: EC50 as grade, ELISA on CD47 coated plates; legend +: <0.06 µg/mL
row,binding,Binder
1,binds,B3
2,binds,B4
3,binds,B5
4,binds,B6
5,binds,B7
6,binds,B8
7,binds,B9
8,binds,B10
9,binds,B11
10,binds,B12
11,binds,B13
12,binds,B14
13,binds,B15
14,binds,B16
15,binds,B17
16,binds,B18
17,binds,B19
18,binds,B20
19,binds,B21
20,binds,B22
21,binds,B23
22,binds,B24
23,binds,B25
24,binds,B26
25,binds,B27
